Here are results for one molecule from PMC10112930.

No constants are given. Whether binding was seen depends on the method and setting. In cells and extracts the contact can be indirect. These calls come from enrichment with a bait or labelling near it, and not all partners need be listed.

This assay has as its target Armadillo-YFP (endogenously tagged Armadillo/β-Catenin, Armadillo-YFP[CPTI001198]) (Drosophila melanogaster (endogenous in embryos)). Nature of the assay: affinity purification with mass spectrometry; anti-GFP co-immunoprecipitation (GFP-nanobody magnetic beads) from soluble cold lysates of 0-9 hpf embryos (before muscle formation), compared with wild-type lysates; 50 mM Tris pH 7.4, 150 mM KCl, 0.5 mM EDTA, 0.01% Triton X-100; 1.5 h at 4°C; LC-MS/MS, MaxQuant/Perseus.

B1: α-Catenin (protein, UniProt P35220 1-917)
chain: MLKPDKMGTLTDFGQIALKWDPKNLEIRTMSVEKTLEPLVLQVTTLVNTKGPSKKKKGKSKRASALVAAVEKATENFIQKGEQIAYENPDITQEMLTAVDEVKKTGDAMSIAAREFSEDPCSSLKRGNMVRAARNLLSAVTRLLILADMVDVHLLLKSLHIVEDDLNKLKNASSQDELMDNMRQFGRNAGELIKQAAKRQQELKDPQLRDDLAAARAMLKKHSTMLLTASKVYVRHPELDLAKVNRDFILKQVCDAVNTISDVAQGKSSQPTDIYSGAGELAAALDDFDEGIVMDPMTYSEKRSRQLLEERLESIISAAALMADADCTRDERRERIVAECNAVRQALQDLLSEYMSNMSQKDNSPGLSRAIDQMCRKTRDLRRQLRKAVVDHVSDSFLETTTPLLDLIEAAKSGNEKKVREKSEIFTKHAEKLVEVANLVCSMSNNEDGVKMVRYAAAQIESLCPQVINAASILTVRPNSKVAQENMTTYRQAWEVQVRILTEAVDDITTIDDFLAVSENHILEDVNKCVMALQVGDARDLRATAGAIQGRSSRVCNVVEAEMDNYEPCIYTKRVLEAVKVLRDQVMMKFDQRVGAAVGALSNNSNKDVDENDFIDASRLVYDGVREIRRAVLMNRSSEDLDTDTEFEPVEDLTLETRSRSSAHTGDQTVDEYPDISGICTAREAMRKMTEEDKQKIAQQVELFRREKLTFDSEVAKWDDTGNDIIFLAKHMCMIMMEMTDFTRGRGPLKTTMDVINAAKKISEAGTKLDKLTREIAEQCPESSTKKDLLAYLQRIALYCHQIQITSKVKADVQNISGELIVSGLDSATSLIQAAKNLMNAVVLTVKYSYVASTKYTRQGTVSSPIVVWKMKAPEKKPLVRPEKPEEVRAKVRKGSQKKVQNPIHALSEFQSPADAV
For the molecule B1, the binding result is given as “binds”.
